Measured values reported in patent US20240400559A1, “SOLID STATE EMITTERS BASED ON PYRIDINIUM SCAFFOLDS” (Council of Scientific and Industrial Research, priority 2021, published 2024).
Several values for one entry are separate records, joined by “and”; a condition that tells them apart may be missing. Identical values can stand only once.

Tested on: BHK-21 cells
Experiment: Confocal colocalization microscopy with MitoTracker Red
Format: cell-based
Conditions: 0.3 μM Mitotracker Red, incubation 15 min

| Compound | Pearson's correlation coefficient with MitoTracker Red (2 μM dye) | Pearson's correlation coefficient with MitoTracker Red (0.2 μM dye) |
| --- | --- | --- |
| COc1ccc(-c2cccc3c4cc(C)ccc4cc(-c4ccccc4)[n+]23)cc1.O=S(=O)([O-])C(F)(F)F [2m, 4-(4-methoxyphenyl)-10-methyl-6-phenylpyrido[2,1-a]isoquinolin-5-ium trifluoro methanesulfonate] | 0.94 and 0.94±0.04 | – |
| COc1ccc(-c2cccc3c4cc(OC)cc(OC)c4cc(-c4ccccc4)[n+]23)cc1.O=S(=O)([O-])C(F)(F)F [2u, 8,10-dimethoxy-4-(4-methoxyphenyl)-6-phenylpyrido[2,1-a]isoquinolin-5-ium trifluoromethanesulfonate] | 0.95 | 0.95±0.02 |
